# Results reported in the supplement of paper PMC12889115.
# This is one part of the list. These are raw signals, not scaled to a control.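 Primary screen: polymyxin B was added at a level permeabilizing Salmonella outer membranes while sparing inner membranes. DMSO wells, both with and without polymyxin B, established maximum growth. Plate-to-plate variation meant each plate was ranked on its own, and the lowest-OD600 compounds were selected as hits.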
# Test system: Salmonella enterica serovar Typhimurium SL1344
# Assay: bacterial growth OD600 after 18 h with compound and polymyxin B; higher = more bacterial growth (less inhibition)
# Details: 50 µM, Mueller-Hinton broth
SMILES,bacterial growth OD600 (polymyxin B 0.75 µg/mL),bacterial growth OD600 (polymyxin B 1 µg/mL)
Cc1nc(CN2CCCC(CO)(Cc3cccc(Cl)c3)C2)c[nH]1 (stereo unspecified),0.861,–
COc1cc(CC2(CCC(=O)NCC3(c4ccccc4)CCOCC3)CCC(=O)N2)ccc1F (stereo unspecified),0.933,–
Cc1cccc(-c2cnc(C)nc2C2CCCN(C(=O)C34CC5CC(CC(C5)C3)C4)C2)c1 (stereo unspecified),0.002,–
O=C(Nc1ccnn1C1CCN(C(=O)C#Cc2ccccc2)CC1)C1CCOC1 (stereo unspecified),–,1.06
COC(=O)C1CCCCN1C(=O)c1c(OC)cc(=O)n2c1CCN(Cc1ccc(Cl)cc1)CC2 (stereo unspecified),0.803,–
COc1cc(CNC2CCCc3c2cnn3-c2ccc(C)c(C)c2)cc2c1OCO2 (stereo unspecified),0.333,–
C=C(C)CN(CC)C(=O)CC1C(=O)NCCN1Cc1ccccc1 (stereo unspecified),–,0.962
COCC(=O)N(C)C(Cc1ccc(F)cc1)C1CCN(C(=O)CCc2ccccc2OC)CC1 (stereo unspecified),0.758,–
COCCNC(=O)c1ccc(OC2CCN(Cc3cccc(C)n3)CC2)c(Cl)c1,–,0.909
CN(Cc1ccsc1)C(=O)CCC1(Cc2ccc(Cl)cc2)CCC(=O)N1 (stereo unspecified),0.948,–
Cc1c(F)cccc1CN1CCC(C2CCN(Cc3cccnc3)CC2)C1 (stereo unspecified),0.776,–
Cc1ccc(CNC(=O)c2cc(Cn3cnc4ccccc43)on2)s1,0.97,–
Cc1cc(CN2CCCC(CNC(=O)c3ccc(-c4ccccc4)cc3)C2)[nH]n1 (stereo unspecified),–,0.848
Cc1ccc(OCc2cc(C(=O)N(C)CCC3CCCCO3)no2)cn1 (stereo unspecified),–,0.921
COCCn1cnc2cc(NC(=O)C3CCCCC3)cc(C(=O)N3CCC(C)CC3)c21,0.838,–
CSc1ccc(CN2CCC(CO)(CCOc3ccccc3)CC2)cc1,–,0.899

SMILES,bacterial growth OD600 (polymyxin B 0.75 µg/mL),bacterial growth OD600 (polymyxin B 1 µg/mL)
CCc1cc(CNC(=O)Cn2cc(NC(=O)CCOc3ccccc3)cn2)on1,0.839,–
c1cnn(CC2CCN(c3ccc(-c4nc(C5CC5)no4)cn3)CC2)c1,–,1.1
O=C(c1ccc(NCCO)nc1)N1CCCC(c2ccccc2)CC1 (stereo unspecified),–,1.11
COCCCN1C(=O)CC(CC(=O)NCc2cc(F)cc(C(F)(F)F)c2)(c2ccccc2C)C1=O (stereo unspecified),0.009,–
CCC1CN(Cc2ccco2)Cc2cc(OC)ccc2O1 (stereo unspecified),0.803,–
CCN1CCN(c2ccc(C(=O)NCCCc3ccc(OC)cc3)cn2)CC1,0.791,–
O=C(Nc1cnn(-c2ccc(C(=O)N3CCN(c4ccccc4F)CC3)cc2)c1)C1CCOC1 (stereo unspecified),0.842,–
O=C1N(CC2CCC2)CCCC1(O)CN1CCOc2ccc(Cl)cc2C1 (stereo unspecified),–,0.747
COCC(=O)N1CCC(n2c(C3CCCO3)nc3cc(C(F)(F)F)ccc32)CC1 (stereo unspecified),0.82,–
O=C(c1ccc(Cl)cc1OC1CCN(Cc2ccco2)CC1)N1CCCCC1,–,0.929
COc1ccc2c(C)nc(N3CCC(C(=O)NCC4CC5C=CC4C54CC4)CC3)nc2c1 (stereo unspecified),0.618,–
COCC(=O)Nc1cc(C(=O)N(C)CC2Cc3ccccc3O2)cc2ncn(CCc3ccccc3)c12 (stereo unspecified),0.917,–
CSc1ccccc1C(=O)NCc1nc(NCCCc2ccccc2)c2ccccc2n1,0.863,–
COc1cccc(-c2nc3ccc(C(=O)N(C)CC(O)c4ccccc4)cc3o2)c1 (stereo unspecified),–,0.749
O=C(c1ccco1)N1CCCN(c2nc3nonc3nc2N2CCCCCC2)CC1,–,0.877

# Complete entries from above.
# O=C1N(CC2CCC2)CCCC1(O)CN1CCOc2ccc(Cl)cc2C1 (stereo unspecified) is listed as bacterial growth OD600 (polymyxin B 1 µg/mL): 0.747
# COc1ccc2c(C)nc(N3CCC(C(=O)NCC4CC5C=CC4C54CC4)CC3)nc2c1 (stereo unspecified) is listed as bacterial growth OD600 (polymyxin B 0.75 µg/mL): 0.618
